In patent US5494926A, “2/3-(heterocyclic alkyl amino)-1-(subst.-phenyl-methoxy)-ethanes/propanes as tachykinin-receptor antagonists” (Merck Sharp & Dohme Ltd., priority 1992, dated 1996):
Counter-ions that a name gives are not always drawn. Some of these results come from one statement about several compounds together.

By UniProt entry, the sequences of proteins in these tests, tags left out.
UniProt P25103, whole entry: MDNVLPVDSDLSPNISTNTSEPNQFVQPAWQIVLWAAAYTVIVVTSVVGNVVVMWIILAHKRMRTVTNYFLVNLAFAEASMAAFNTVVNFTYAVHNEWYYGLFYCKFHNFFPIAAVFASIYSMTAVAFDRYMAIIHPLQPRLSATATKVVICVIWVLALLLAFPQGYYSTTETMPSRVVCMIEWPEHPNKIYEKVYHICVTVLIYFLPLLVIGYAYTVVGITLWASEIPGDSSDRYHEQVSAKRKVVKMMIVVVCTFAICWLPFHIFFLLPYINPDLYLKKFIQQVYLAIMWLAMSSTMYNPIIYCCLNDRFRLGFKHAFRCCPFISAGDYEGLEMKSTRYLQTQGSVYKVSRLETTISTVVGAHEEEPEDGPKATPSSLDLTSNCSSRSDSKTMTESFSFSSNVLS

The compounds below were run against human NK1R (Homo sapiens, UniProt P25103) (assay: human NK1R assay: radiolabelled substance P binding). Conditions: read-out: IC50 (concentration of the test compound required to reduce by 50% the amount of radiolabelled substance P binding to human NK1R), method of EP 0 528 495.
`Cc1cc(COC[C@H](c2ccccc2)N(C)Cc2n[nH]c(=O)[nH]2)cc(C(C)(C)C)c1` [Example 8, 5-[(N-(2-((((3-t-Butyl, 5-methyl)phenyl)methyloxy)-1-phenylethyl))-N-methylamino)methyl]-2,3-dihydro-4H-1,2,4-triazol-3-one] showed an IC50 of less than 100 nM. `O=c1[nH]nc(CN[C@H](COCc2cc(C(F)(F)F)cc(C(F)(F)F)c2)c2ccccc2)[nH]1` [Example 7, 5-[(N-((2-((3,5-Bis(trifluormethyl)phenyl)methyloxy)-1-phenylethyl)ammonium)methyl-2,3-dihydro-4H-1,2,4-triazol-3-one oxalate salt] showed an IC50 of less than 100 nM. `FC(F)(F)c1cc(COC[C@@H](NCc2nnc[nH]2)c2ccccc2)cc(C(F)(F)F)c1` [Example 3, 3-[N(-2-((3,5-Bis(trifluormethyl)phenyl)methyloxy)-1-phenylethyl)aminomethyl]-1,2,4-triazole] was tested, and the IC50 was less than 100 nM.
